Data as given in PubChem BioAssay AID1671195 (Yale University, 2021).
Assay: 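Regulators of LDL receptor activity judged by labelled LDL uptake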 (primary screen). Cells: human Huh7 hepatoma cells. Reagents: siRNA pool against human genes, 18 nM. Timing: about 2 to 2.5 days of knockdown, then 8 h LDL uptake. Challenge: DiI-labelled LDL at 30 µg/ml for 8 h, in lipoprotein-deficient serum medium. Read-out: 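Per-cell DiI-LDL intensity by automated imaging; well means scaled to the plate median and given as a robust z-score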. Direction: robust z-score: higher = more LDL uptake after knockdown. Hit rule: 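a gene counts as active if at least two replicate z-scores exceed ±2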.
Shown is a random part of about 22,000 deposited reagents. About 1,510 of them (6.9%) were called active. 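Active includes knockdowns raising or lowering LDL uptake; positive z-scores mean more uptake, negative mean less.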 Reagents against one gene are numbered here. Reagent sequences are not shown.

gene	pool no.	robust z-score, replicate 1	robust z-score, replicate 2	robust z-score, replicate 3	activity call
LOC402196 (retired record)	1	-0.296	-0.742	0.36	inactive
SDHD	1	-0.178	0.0382	0.437	inactive
ABCB7	1	0.354	0.119	0.792	inactive
LSMEM2	1	-1.47	-1.59	-1.16	inactive
FYN	1	1.47	1.25	1.47	inactive
TEX29	1	1.2	0.621	1.18	inactive
GCN1	1	0.0313	0.767	0.802	inactive
GPN3	1	0.785	1.7	1.33	inactive
PABPC1	1	-0.879	-0.871	-1.27	inactive
MUTYH	1	0.0457	-0.496	-0.268	inactive
IFT70A	1	-0.186	0.982	0.807	inactive
FAM86B3P	1	0.321	0.509	-0.00332	inactive
CYB5R5	1	1.25	1.55	1.16	inactive
CASP1P2	1	0.602	1.03	0.482	inactive
ZNF391	1	0.029	-0.0479	-0.331	inactive
ZNF391	2	-1.19	-1.07	-1.44	inactive
LGALS3	1	-0.498	-0.377	-0.676	inactive
LINC00858	1	0.289	0.239	0.521	inactive
ERN2	1	-0.0795	0.414	-0.0836	inactive
ZNHIT3	1	0.344	0.231	0.415	inactive
AKT1S1	1	-0.0808	0.489	0.184	inactive
SLC35A3	1	-0.837	-0.462	-0.468	inactive
CFAP99	1	-0.151	-0.353	-0.336	inactive
CFAP99	2	-1.39	-1.31	-1.68	inactive
WDR70	1	2.83	1.69	10.7	active
SUSD5	1	-1.18	-0.672	-0.549	inactive
C1QL3	1	-0.251	-0.117	-0.372	inactive
KCNIP2	1	0.43	-0.408	0.0344	inactive
SIRPG	1	0.504	1.52	0.795	inactive
ZHX1	1	1.62	2.5	2.6	active
ART1	1	0.742	-0.426	0.584	inactive
GPR63	1	-2.15	-0.665	0.25	inactive
TMEM128	1	-0.607	-1	-0.0569	inactive
CRACDL	1	1.76	1.97	2.33	active
PDE6B	1	-1.22	-0.584	-1.11	inactive
SARS2	1	-0.904	-0.919	-0.284	inactive
LHX1	1	-1.34	-0.82	-0.997	inactive
PRELID2	1	2.17	2.96	2.6	active
DKK3	1	-1.76	1.14	-0.957	inactive
LRRC8E	1	-0.228	-0.148	0.0394	inactive
RLN3	1	-1.64	-1.37	-0.891	inactive
C2orf78	1	0.171	0.728	0.357	inactive
TEPSIN	1	-0.11	0.683	0.518	inactive
PKN3	1	-0.223	-0.106	-0.591	inactive
LOC387942 (retired record)	1	2.17	1.97	2.16	active
GOT1L1	1	0.47	-0.906	-0.0993	inactive
PHKG2	1	-0.21	0.567	0.895	inactive
LINC02138	1	5.6	5.46	5.53	active
TESK1	1	0.101	0.171	-0.152	inactive
AGFG2	1	0.0398	-0.0111	0.729	inactive
DICER1	1	1.69	0.595	1.06	inactive
SORL1	1	0.138	0.144	-0.168	inactive
NELFB	1	0.76	1.46	1.91	inactive
MYH7B	1	-0.848	-0.952	-0.13	inactive
COPS3	1	1.73	2.23	2.31	active
RPL19P21	1	-0.463	-0.0316	-0.363	inactive
PTPA	1	0.0734	-0.0565	-0.525	inactive
SPI1	1	0.298	0.631	-0.436	inactive
PML	1	-0.449	0.813	1.33	inactive
MED9	1	1.61	-0.359	0.33	inactive
LOC441776 (retired record)	1	0.0408	-0.0862	-0.0735	inactive
ADORA3	1	2.15	0.206	1.57	inactive
STK16	1	-1.04	-0.88	-1.39	inactive
H3C12	1	-0.112	0.158	0.0168	inactive
PGA5	1	-1.41	-0.639	-0.664	inactive
GIMAP2	1	0.784	1.49	1.73	inactive
PCDHB7	1	-0.955	-0.883	-0.889	inactive
RIC8B	1	-0.994	-0.0389	0.964	inactive
